Data from paper PMC5824891.
No constants are given. Whether binding was seen depends on the method and setting. Binding seen in cells or lysates may run through a third protein. Where a sequence is shown, tags or fusion partners need not be part of it.

Columns and labels:
GFP-Vps11 = biological target: T1, GFP-Vps11 (UniProt Q9H270); assay: co-IP; IP of GFP-tagged subunits from HeLa cells co-expressing HA-VIPAS39 alone (left panel) or HA-VIPAS39 and HA-Vps33B (right panel), blot for HA; lysis buffer 40 mM TRIS pH 7.4, 100 mM NaCl, 0.1% TX-100, 5 mM EDTA; also read after prolonged exposure of the blot
T1 sequence: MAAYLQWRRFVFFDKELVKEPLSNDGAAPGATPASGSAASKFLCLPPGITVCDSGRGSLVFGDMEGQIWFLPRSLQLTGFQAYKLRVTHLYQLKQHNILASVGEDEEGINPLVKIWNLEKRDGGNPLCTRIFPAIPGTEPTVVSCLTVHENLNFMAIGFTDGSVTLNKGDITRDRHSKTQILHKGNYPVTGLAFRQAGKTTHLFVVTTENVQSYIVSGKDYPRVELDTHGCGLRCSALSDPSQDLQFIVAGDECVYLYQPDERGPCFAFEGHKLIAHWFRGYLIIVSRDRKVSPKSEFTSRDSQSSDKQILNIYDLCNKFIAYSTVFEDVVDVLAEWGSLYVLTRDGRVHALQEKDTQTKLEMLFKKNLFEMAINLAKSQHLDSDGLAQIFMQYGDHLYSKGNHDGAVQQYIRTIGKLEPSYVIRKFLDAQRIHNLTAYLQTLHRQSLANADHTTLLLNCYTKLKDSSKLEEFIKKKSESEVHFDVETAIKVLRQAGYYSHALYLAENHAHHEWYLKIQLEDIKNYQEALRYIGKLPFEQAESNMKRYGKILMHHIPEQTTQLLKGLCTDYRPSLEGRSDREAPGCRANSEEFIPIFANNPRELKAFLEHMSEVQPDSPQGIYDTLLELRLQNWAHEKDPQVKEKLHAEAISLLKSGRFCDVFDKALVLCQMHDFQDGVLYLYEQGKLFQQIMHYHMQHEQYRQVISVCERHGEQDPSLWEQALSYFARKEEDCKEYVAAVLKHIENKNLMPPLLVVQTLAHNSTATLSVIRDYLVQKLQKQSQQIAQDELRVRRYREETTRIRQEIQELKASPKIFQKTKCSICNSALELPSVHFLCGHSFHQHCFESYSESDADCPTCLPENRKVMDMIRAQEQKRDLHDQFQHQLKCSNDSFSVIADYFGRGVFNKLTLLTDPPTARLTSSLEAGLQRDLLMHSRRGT

GFP-tagged Vps16 = biological target: T2, GFP-tagged Vps16 (UniProt Q9H269); assay: as above
T2 sequence: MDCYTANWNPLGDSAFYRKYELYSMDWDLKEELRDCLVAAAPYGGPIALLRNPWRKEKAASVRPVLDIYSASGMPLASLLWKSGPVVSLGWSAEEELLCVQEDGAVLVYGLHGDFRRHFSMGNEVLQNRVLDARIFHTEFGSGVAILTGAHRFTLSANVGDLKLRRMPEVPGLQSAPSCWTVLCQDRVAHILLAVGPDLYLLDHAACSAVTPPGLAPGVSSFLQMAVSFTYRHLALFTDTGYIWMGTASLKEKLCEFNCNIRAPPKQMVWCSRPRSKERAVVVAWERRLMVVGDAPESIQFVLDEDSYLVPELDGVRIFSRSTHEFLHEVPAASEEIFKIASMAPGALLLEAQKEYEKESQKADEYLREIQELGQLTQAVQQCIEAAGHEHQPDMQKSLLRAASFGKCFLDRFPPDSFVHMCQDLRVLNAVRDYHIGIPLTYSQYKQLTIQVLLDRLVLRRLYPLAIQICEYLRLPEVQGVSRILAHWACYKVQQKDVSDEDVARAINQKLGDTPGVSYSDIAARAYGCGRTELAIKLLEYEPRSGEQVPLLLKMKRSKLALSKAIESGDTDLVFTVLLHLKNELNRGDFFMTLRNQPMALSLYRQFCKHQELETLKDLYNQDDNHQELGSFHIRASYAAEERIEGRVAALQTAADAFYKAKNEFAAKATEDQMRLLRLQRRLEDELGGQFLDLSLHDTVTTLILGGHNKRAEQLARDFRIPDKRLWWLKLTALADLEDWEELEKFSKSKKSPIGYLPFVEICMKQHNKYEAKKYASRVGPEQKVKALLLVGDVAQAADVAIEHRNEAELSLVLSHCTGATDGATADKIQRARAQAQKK

B1: HA-VIPAS39 (protein, UniProt Q9H9C1 1-493)
chain: MNRTKGDEEEYWNSSKFKAFTFDDEDDELSQLKESKRAVNSLRDFVDDDDDDDLERVSWSGEPVGSISWSIRETAGNSGSTHEGREQLKSRNSFSSYAQLPKPTSTYSLSSFFRGRTRPGSFQSLSDALSDTPAKSYAPELGRPKGEYRDYSNDWSPSDTVRRLRKGKVCSLERFRSLQDKLQLLEEAVSMHDGNVITAVLIFLKRTLSKEILFRELEVRQVALRHLIHFLKEIGDQKLLLDLFRFLDRTEELALSHYREHLNIQDPDKRKEFLKTCVGLPFSAEDSAHIQDHYTLLERQIIIEANDRHLESAGQTEIFRKHPRKASILNMPLVTTLFYSCFYHYTEAEGTFSSPVNLKKTFKIPDKQYVLTALAARAKLRAWNDVDALFTTKNWLGYTKKRAPIGFHRVVEILHKNNAPVQILQEYVNLVEDVDTKLNLATKFKCHDVVIDTYRDLKDRQQLLAYRSKVDKGSAEEEKIDALLSSSQIRWKN
- binding (GFP-Vps11): no binding
- binding (GFP-tagged Vps16): no binding

B2: HA-Vps33B (protein, UniProt Q9H267 1-617)
chain: MAFPHRPDAPELPDFSMLKRLARDQLIYLLEQLPGKKDLFIEADLMSPLDRIANVSILKQHEVDKLYKVENKPALSSNEQLCFLVRPRIKNMRYIASLVNADKLAGRTRKYKVIFSPQKFYACEMVLEEEGIYGDVSCDEWAFSLLPLDVDLLSMELPEFFRDYFLEGDQRWINTVAQALHLLSTLYGPFPNCYGIGRCAKMAYELWRNLEEEEDGETKGRRPEIGHIFLLDRDVDFVTALCSQVVYEGLVDDTFRIKCGSVDFGPEVTSSDKSLKVLLNAEDKVFNEIRNEHFSNVFGFLSQKARNLQAQYDRRRGMDIKQMKNFVSQELKGLKQEHRLLSLHIGACESIMKKKTKQDFQELIKTEHALLEGFNIRESTSYIEEHIDRQVSPIESLRLMCLLSITENGLIPKDYRSLKTQYLQSYGPEHLLTFSNLRRAGLLTEQAPGDTLTAVESKVSKLVTDKAAGKITDAFSSLAKRSNFRAISKKLNLIPRVDGEYDLKVPRDMAYVFGGAYVPLSCRIIEQVLERRSWQGLDEVVRLLNCSDFAFTDMTKEDKASSESLRLILVVFLGGCTFSEISALRFLGREKGYRFIFLTTAVTNSARLMEAMSEVKA
- binding (GFP-Vps11): no binding
- binding (GFP-tagged Vps16): no binding
